Results taken from US20230414780A1.
Results are given in words; binding and its absence hold for the method and conditions named. Some entries that bind do so weakly or less than the wild type. For some of these results: Sequences can lack the tags named with a protein.

Columns and labels:
[1] = molecular target: human transferrin receptor (hTfR) fused to EGFP, on CHO cells (human) (UniProt P02786); test: flow cytometry screening, CHO cells
[2] = molecular target: human transferrin receptor (hTfR) fused to EGFP, on CHO cells (human) (UniProt P02786); test: flow cytometry, CHO-hTfR-EGFP cells
[3] = molecular target: human transferrin receptor (hTfR) fused to EGFP, on CHO cells (human) (UniProt P02786); test: competition flow cytometry on CHO-hTfR-EGFP cells, 4 C; VHH competitor in dilution series, phage-H1 tracer at EC80, anti-M13-A647
[4] = molecular target: human transferrin receptor (hTfR) fused to EGFP, on CHO cells (human) (UniProt P02786); test: competition flow cytometry on CHO-hTfR-EGFP cells, 4 C; VHH competitor in dilution series, phage-B6 tracer at EC80, anti-M13-A647
[5] = molecular target: human transferrin receptor (hTfR) fused to EGFP, on CHO cells (human) (UniProt P02786); test: flow cytometry, CHO-hTfR-GFP cells
[6] = molecular target: human transferrin receptor (hTfR) fused to EGFP, on CHO cells (human) (UniProt P02786); test: flow cytometry on CHO-hTfR-EGFP cells, 1 hr at 4 C, anti-6His + Alexa647 anti-mouse; ratio to background fluorescence
[7] = molecular target: mouse transferrin receptor (mTfR) fused to EGFP, on CHO cells (mouse) (UniProt Q62351); test: flow cytometry on CHO-mTfR-EGFP cells, 1 hr at 4 C, anti-6His + Alexa647 anti-mouse

Row | Binder | binding [2] | further results
1 | E8 (VHH) VHH: EVQLVESGGRLVQAGGSLRLSCTASGLAFSTHTMHWFRQAPGKEREFVGAIRWSDEDTEYADSVKGRFTISRDNAKSTVYLQMNNLKPEDTAVYYCAAARGVGTSGHMKYWGQGTQVTVSS | binds | binding [1]: binds; binding [3]: binds
2 | H1 (VHH) VHH: EVQLVESGGGLVQPGGSLRLSCAASGFASHLYAIGWFRQAPGKEREKVSCISSNDGSTYYADSVKGRFTISRDTVKDMVYLQMNSLKPEDTAVYYCATDLTVHCFMAEYDWWGQGTQVTVSS | binds | binding [1]: binds; binding [3]: binds
3 | VHH B-siGFPst1 bioconjugate (VHH, not shown: small tags and cut ends, siGFPst1 siRNA linked to the Gln of the C-terminal Q-tag) VHH: EVQLVESGGGVVQPGGSLRLSCAASGEIFSINFMRWYRQAPGKQREWVAGFTRDGSTNYPDSAKGRFTISRDNAKNTVYLQIDSLKPEDTAVYYCYMLDTWGQGTQVTVSS | binds | binding [5]: binds; binding [6]: binds
4 | VHH A12 (C5^V12) (VHH) VHH: EVQLVESGGGVVQPGGSLKLSCVASGTDFSINFIRWYRQAPGKQREFVAGITATGNTNYADSMKGRFTISRDNTKNAVYLQIDSLKPEDTAVYYCYMLDKWGQGTQVTVSS |  | binding [7]: no binding (tested: about 5x10^4 nM)
5 | H7 (VHH) VHH: EVQLVESGGGLVQAGGSLRLSCTASGRPISDYPMGWFRRAPGKDRELVASISRTGDGTYYANSMKERFTISRDNAQNTVSLQISSLKPEDTAVYYCGAGINPTRYWGQGTQVTVSS | binds | 
6 | VHH A21 (C5^h2) (VHH) VHH: EVQLVESGGGVVQPGGSLRLSCAASGTDFSINFIRWVRQAPGKQREFVAGFTATGNTNYADSVKGRFTISRDNAKNTLYLQMNSLRPEDTAVYYCYMLDKWGQGTQVTVSS | binds | 
7 | F2a (VHH) VHH: EVQLVESGGGLVQPGESLRLSCTASESISIYGVGWYRQAPGEQRVLVAHLKRNGLTEYKDSVKGRFTISRDNARNTIYLEMKNLKPEDTAIYYCNTALGSVLPWGRGTQVTVSS | binds | binding [4]: binds

More lines, main results first:

Row | binding [2] | Binder | further results
8 | binds | E2 (VHH) VHH: QVQLVQSGGGLVQAGGSLRLSCAASGSIFSDITLAWHRQIPGKEREWVAGISRSGSPSYRDSVKGRFTISRDNAKNTVFLQMNSLEPEDTGVYYCYSRGYWGQGTQVTVSS | 
9 | binds | B7 (VHH) VHH: QVQLVQSGGGLVQAGGSLTLSCTASGRPLSDYPMGWFRRAPEKERELVASISRTGDGTYYADGMRGRFTISRDNSENTVSLQMNNLKPEDTAVYYCGAGINPTKYWGQGTQVTVSS | 
10 | binds | C3 (VHH) VHH: EVQLVQSGGGLVQAGGSLRLSCAASGRDFSDTSMAWHRQAPGKERLWVAGIRSGSTSTSYADSVKGRFTISRDDAKNTVYLQMDNLTPEDTAVYFCYSKGYWGQGTQVTVSS | binding [4]: binds
11 | binds | C5^h23 (VHH) VHH: EVQLVESGGGVVQPGGSLRLSCAASGTDFSINFIRWVRQAPGKQREFVAGFTATGNTNYADSVKGRFTISRDNAKNTLYLQMNSLRPEDTAVYYCYMLDKWGQGTQVTVSS | 
